Results deposited as PubChem BioAssay AID652243 (Drosophila RNAi Screening Center, 2013).

- Assay: 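Fly genes required for human androgen receptor driven transcription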 (primary screen)
- Cell system: Drosophila S2R+ cells
- Reagents: long dsRNA against Drosophila genes
- Time to read-out: 72 h (48 h, then 24 h hormone)
- Conditions: synthetic androgen R1881 at 10 nM for 24 h
- Measured: 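Firefly light from an androgen-responsive reporter and Renilla control light per well, raw and unnormalised, for each of two replicates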
- Scale: firefly reporter light: higher = more light from androgen-responsive reporter; Renilla control light: higher = more constitutive control signal (cell number, transfection)
- Active means: 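Across duplicate plates, a knock-down whose log firefly/Renilla ratio shifted a set fold down or up from the GFP/LacZ control mean was a hit; the downward cut appears as both 1.5 and 3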
- Calls: active = hit: reporter lowered or raised; inactive = no hit
In all, the deposit lists about 24,000 reagents; shown is an unselected part of those that have a named target and a result. Over the whole deposit, 246 (1%) are marked active. 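Plates not normalised; calls are printed but the firefly/Renilla ratio behind them is not deposited; fold cut for lowering reported inconsistently.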 The raw values are shown without normalisation. Reagents against one gene are numbered here. Names joined by + are all predicted targets of the reagent. No sequences are given here. Not given: the amount of reagent.

The opening 4 records, ahead of the listing:
target gene	reagent no.	firefly reporter light, replicate 1	firefly reporter light, replicate 2	Renilla control light, replicate 1	Renilla control light, replicate 2	outcome
Mal-A3	1	1.89e5	2.24e5	1.60e6	1.41e6	inactive
Mal-A3	2	3.83e5	4.06e5	1.14e6	1.19e6	inactive
Sema5c	1	95628	69786	2.82e6	2.30e6	active
Sema5c	2	4.02e5	3.15e5	4.44e5	4.51e5	inactive

Main list, from the start:
target gene	reagent no.	firefly reporter light, replicate 1	firefly reporter light, replicate 2	Renilla control light, replicate 1	Renilla control light, replicate 2	outcome
Mal-A3	1	1.89e5	2.24e5	1.60e6	1.41e6	inactive
Mal-A3	2	3.83e5	4.06e5	1.14e6	1.19e6	inactive
Sema5c	1	95628	69786	2.82e6	2.30e6	active
Sema5c	2	4.02e5	3.15e5	4.44e5	4.51e5	inactive
CG2100	1	66807	1.28e5	5.95e5	6.99e5	inactive
CR32821 + CR43381 + CR43377 + 1 more	1	8.84e5	9.42e5	1.20e6	1.12e6	inactive
CG32053	1	1.31e6	1.01e6	1.58e6	1.79e6	inactive
Pcyt1	1	8.57e5	1.12e6	1.11e6	1.44e6	inactive
Pcyt1	2	5.56e5	2.80e5	1.82e6	9.43e5	inactive
ICA69	1	30605	26603	2.63e5	3.51e5	inactive
p38a	1	1.50e5	2.58e5	2.80e6	2.28e6	active
p38a	2					inactive
p38a	3					inactive
mRpL9	1	1.35e5	1.42e5	2.28e6	1.77e6	inactive
mRpL9	2	2.52e5	2.98e5	6.61e5	7.82e5	inactive
rgn	1	56265	33108	2.53e5	2.30e5	inactive
Tbcd	1	1.01e6	9.95e5	4.24e6	2.41e6	inactive
D12	1	8.14e5	1.16e6	2.61e6	1.51e6	inactive
ms(3)76Ba	1	2.52e5	1.31e5	2.48e6	1.41e6	inactive
CG8834	1	2.26e5	1.46e5	1.97e6	1.55e6	inactive
RhoGAP100F	1	66719	49933	4.74e5	4.25e5	inactive
RhoGAP100F	2	3.03e5	3.07e5	9.69e5	1.52e6	inactive
GstT4	1	86596	1.70e5	8.62e5	1.08e6	inactive
Ugt304A1	1	1.34e5	1.32e5	1.50e6	1.81e6	inactive
Ugt304A1	2	2.50e5	2.70e5	2.86e5	3.88e5	inactive
CG15861	1	1.88e5	2.09e5	1.39e6	1.33e6	inactive
CG15861	2	6.73e5	7.09e5	1.15e6	1.25e6	inactive
Hyccin	1	3.64e5	5.15e5	7.46e5	6.91e5	inactive
CG32313	1	9.15e5	8.22e5	1.63e6	1.37e6	inactive
CG32163	1	6.46e5	6.16e5	2.69e6	1.86e6	inactive
CG32163	2	9.44e5	8.04e5	1.32e6	9.48e5	inactive
CG32163	3	4.88e5	4.59e5	1.05e6	1.09e6	inactive
CG6040	1	1.21e5	90602	6.00e5	5.05e5	inactive
CG6040	2	3.61e5	2.27e5	7.89e5	5.24e5	inactive
CG10205	1	90444	84294	6.87e5	6.87e5	inactive
Bfc	1	1.91e5	2.08e5	2.78e6	2.47e6	inactive
maf-S	1	32624	67007	5.21e5	6.52e5	inactive
CG14153	1	3.26e5	2.59e5	3.91e6	3.32e6	inactive
CG14153	2	8.47e5	7.05e5	1.07e6	1.31e6	inactive
Son	1	1.35e5	91754	2.62e6	1.40e6	inactive
